Results: PubChem BioAssay (NCATS)
Inconclusive results, whose numbers are uncertain, are shown with a selection of clear calls. Potencies beside an inconclusive call are fits to weak or partial responses and may not hold up. Activity calls are given as the source filed them. Calls follow the shape of the dose curve; as a rule, active = well fitted cell-killing curve with a large enough effect; inconclusive = small, poorly fitted or top-dose-only effect, or effect the other way; inactive = no such curve, though single readings can be large or run the other way.

Experiments:
[1] = Quantitative High-Throughput drug screen in 47 multiple myeloma cell lines against the NCATS MIPE library collection: MM1R_ATCC cell viability assay (AID 1918981); also: nearly all actives have a fitted effect of over 35% in size
How it was run: (§1)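 Plated at 500 cells per well, myeloma lines received MIPE 4.0 compounds by pin tool. Following 48 h culture at 37 °C, CellTiter-Glo luminescence gave viability relative to DMSO and media-only controls.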

[2] = Quantitative High-Throughput drug screen in 47 multiple myeloma cell lines against the NCATS MIPE library collection: LP1_DSMZ cell viability assay (AID 1918982); conditions: LP1 myeloma viability, CellTiter-Glo ATP luminescence, 48 h; viability (% of control): at 45.8 µM (top of the series); also: nearly all actives have a fitted effect of over 35% in size
How it was run: as §1

[3] = Quantitative High-Throughput drug screen in 47 multiple myeloma cell lines against the NCATS MIPE library collection: KMS28PE_JCRB cell viability assay (AID 1918983); also: nearly all actives have a fitted effect of over 35% in size
How it was run: as §1

[4] = Quantitative High-Throughput drug screen in 47 multiple myeloma cell lines against the NCATS MIPE library collection: KMS34_JCRB cell viability assay (AID 1918985); conditions: KMS34 myeloma viability, CellTiter-Glo ATP luminescence, 48 h; viability, percent of control: at 45.8 µM (top of the series); also: nearly all actives have a fitted effect of over 40% in size;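 as to viability, percent of control: 100% = DMSO-only wells and 0% = media-only wells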
How it was run: as §1

[5] = Quantitative High-Throughput drug screen in 47 multiple myeloma cell lines against the NCATS MIPE library collection: OCIMY7_PLB cell viability assay (AID 1918987); conditions: OCI-MY7 myeloma viability, CellTiter-Glo ATP, 48 h; viability (% of DMSO): at 45.8 µM (top of the series); also: nearly all actives have a fitted effect of over 65% in size
How it was run: as §1

[6] = Quantitative High-Throughput drug screen in 47 multiple myeloma cell lines against the NCATS MIPE library collection: SKMM1_PLB cell viability assay (AID 1919863); conditions: SKMM1 myeloma viability, CellTiter-Glo ATP, 48 h; viability: active compounds read low; also: nearly all actives have a fitted effect of over 35% in size
How it was run: as §1

[7] = Quantitative High-Throughput drug screen in 47 multiple myeloma cell lines against the NCATS MIPE library collection: U266_ATCC cell viability assay (AID 1919864); also: nearly all actives have a fitted effect of over 35% in size
How it was run: as §1

[8] = Quantitative High-Throughput drug screen in 47 multiple myeloma cell lines against the NCATS MIPE library collection: OCIMY5_PLB cell viability assay (AID 1918988); conditions: OCI-MY5 myeloma viability, ATP luminescence, 48 h; viability, % of control: at 45.8 µM (top of the series); also: nearly all actives have a fitted effect of over 65% in size
How it was run: as §1

[9] = Quantitative High-Throughput drug screen in 47 multiple myeloma cell lines against the NCATS MIPE library collection: OPM1_PLB cell viability assay (AID 1918989); conditions: CellTiter-Glo, 48 h; viability (% of control): at 45.8 µM (top of the series); also: nearly all actives have a fitted effect of over 40% in size;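 as to viability (% of control): 100% = DMSO-only wells and 0% = media-only wells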
How it was run: as §1

[10] = Quantitative High-Throughput drug screen in 47 multiple myeloma cell lines against the NCATS MIPE library collection: L363_DSMZ cell viability assay (AID 1918984); conditions: L363 myeloma viability, CellTiter-Glo ATP luminescence, 48 h; viability (% of control): at 45.8 µM (top of the series); also: nearly all actives have a fitted effect of over 40% in size
How it was run: as §1
Potency is read from the fitted curve at half-maximal effect.

C[C@@H](O[C@H]1OCCN(Cc2n[nH]c(=O)[nH]2)[C@@H]1c1ccc(F)cc1)c1cc(C(F)(F)F)cc(C(F)(F)F)c1
active: Potency [2] 23.5 µM | Potency [4] 20.9 µM | Potency [6] 23.5 µM
inconclusive: Potency [1] 26.4 µM [cytotoxic, single point] | Potency [3] 23.5 µM [cytotoxic, partial curve] | Potency [5] 13.2 µM [cytotoxic, partial curve, poor fit] | Potency [7] 37.2 µM [cytotoxic, single point]

O=C1NC(=O)C(=Cc2ccc(-c3ccc(F)cc3)o2)S1
active: Potency [1] 2.09 µM | Potency [5] 20.9 µM
inconclusive: Potency [2] 23.5 µM [cytotoxic, single point] | Potency [3] 1.32 µM [cytotoxic, partial curve, poor fit] | Potency [4] 0.743 µM [cytotoxic, full curve, poor fit] | Potency [8] 1.66 µM [cytotoxic, full curve, poor fit] | Potency [9] 8.33 µM [cytotoxic, partial curve, poor fit] | Potency [6] 20.9 µM [cytotoxic, partial curve, poor fit]
inactive: Potency [7]

O=C1CCc2ccc(OCCCCN3CCN(c4cccc(Cl)c4Cl)CC3)cc2N1
inconclusive: Potency [1] 23.5 µM [cytotoxic, partial curve, poor fit] | Potency [2] 20.9 µM [cytotoxic, partial curve, poor fit] | Potency [10] 3.72 µM [cytotoxic, full curve, poor fit] | Potency [4] 20.9 µM [cytotoxic, single point] | Potency [5] 37.2 µM [cytotoxic, partial curve, poor fit] | Potency [8] 26.4 µM [cytotoxic, partial curve, poor fit]
active: Potency [9] 18.7 µM
inactive: viability [6] 132%

C[C@@H]1CCN(C(=O)CC#N)C[C@H]1N(C)c1ncnc2[nH]ccc12
inactive: Potency [1] | Potency [2]
inconclusive: Potency [10] 2.96 µM [cytotoxic, full curve, poor fit] | Potency [4] 1.18 µM [cytotoxic, full curve, poor fit] | Potency [5] 0.0053 µM [rising, full curve, poor fit] | Potency [6] 0.469 µM [cytotoxic, full curve, poor fit] | Potency [7] 14.8 µM [cytotoxic, partial curve, poor fit]
active: Potency [8] 13.2 µM

CC(=NNC(=S)N1CCC1)c1ccccn1
inconclusive: Potency [1] 0.0066 µM [cytotoxic, full curve, poor fit] | Potency [2] 0.0743 µM [cytotoxic, full curve] | Potency [3] 0.0074 µM [cytotoxic, full curve, poor fit] | Potency [10] 0.0012 µM [cytotoxic, full curve] | Potency [4] 0.0019 µM [cytotoxic, full curve] | Potency [8] 0.0047 µM [cytotoxic, full curve] | Potency [7] 0.0166 µM [cytotoxic, full curve, poor fit]

COc1ccc(C=CC(=O)Nc2ccccc2C(=O)O)cc1OC
inactive: Potency [4]
inconclusive: Potency [1] 37.2 µM [cytotoxic, single point] | Potency [2] 37.2 µM [cytotoxic, single point] | Potency [10] 0.0264 µM [cytotoxic, full curve, poor fit] | Potency [5] 0.0264 µM [cytotoxic, full curve, poor fit] | Potency [8] 23.5 µM [cytotoxic, partial curve, poor fit] | Potency [6] 0.372 µM [cytotoxic, full curve, poor fit] | Potency [7] 37.2 µM [cytotoxic, single point]

CC1(C)OC2=C(C(=O)c3ccccc3C2=O)[C@H](NCc2ccccc2)[C@H]1O
active: Potency [1] 4.18 µM | Potency [2] 4.69 µM | Potency [3] 6.62 µM | Potency [8] 3.32 µM

O=C(NCC1CCCCN1)c1cc(OCC(F)(F)F)ccc1OCC(F)(F)F (configuration not stated)
inconclusive: Potency [1] 0.0526 µM [rising, full curve, poor fit] | Potency [2] 37.2 µM [cytotoxic, single point] | Potency [3] 0.001 µM | Potency [4] 33.2 µM [cytotoxic, single point] | Potency [8] 37.2 µM [cytotoxic, single point] | Potency [6] 18.7 µM [cytotoxic, partial curve, poor fit]

COc1ccc(C2Sc3ccccc3N(CCN(C)C)C(=O)C2OC(C)=O)cc1 (configuration not stated)
inconclusive: Potency [3] 6.62 µM [cytotoxic, partial curve, poor fit] | Potency [6] 1.18 µM [cytotoxic, partial curve, poor fit]
inactive: Potency [1] | Potency [10] | Potency [4]
active: Potency [2] 0.0017 µM

Oc1ccc(C2CCN(c3ccnc4ccccc34)CC2)cc1O
inactive: viability [6] 103%
inconclusive: Potency [1] 18.7 µM [cytotoxic, partial curve] | Potency [2] 18.7 µM [cytotoxic, partial curve, poor fit] | Potency [5] 16.6 µM [cytotoxic, partial curve, poor fit]
active: Potency [10] 18.7 µM | Potency [4] 16.6 µM | Potency [8] 14.8 µM

Cc1[nH]c(=O)c(C#N)cc1-c1ccc2nccn2c1
inconclusive: Potency [1] 0.003 µM [rising, full curve, poor fit] | Potency [2] 23.5 µM [cytotoxic, single point] | Potency [10] 0.0662 µM [rising, full curve, poor fit] | Potency [4] 0.0023 µM [rising, full curve] | Potency [8] 20.9 µM [cytotoxic, partial curve, poor fit] | Potency [6] 0.0021 µM [rising, full curve]
inactive: Potency [5] | Potency [9] | Potency [7]

N[C@H](CSC(c1ccccc1)(c1ccccc1)c1ccccc1)C(=O)O
active: Potency [6] 10.5 µM
inconclusive: Potency [1] 20.9 µM [cytotoxic, partial curve] | Potency [2] 20.9 µM [cytotoxic, partial curve] | Potency [3] 37.2 µM [cytotoxic, single point] | Potency [10] 20.9 µM [cytotoxic, partial curve]

Three structures already listed, arranged by number of heavy atoms, rising:
Oc1ccc(C2CCN(c3ccnc4ccccc34)CC2)cc1O
inactive: viability [6] 103%
inconclusive: Potency [1] 18.7 µM [cytotoxic, partial curve] | Potency [2] 18.7 µM [cytotoxic, partial curve, poor fit] | Potency [5] 16.6 µM [cytotoxic, partial curve, poor fit]
active: Potency [10] 18.7 µM | Potency [4] 16.6 µM | Potency [8] 14.8 µM

N[C@H](CSC(c1ccccc1)(c1ccccc1)c1ccccc1)C(=O)O
active: Potency [6] 10.5 µM
inconclusive: Potency [1] 20.9 µM [cytotoxic, partial curve] | Potency [2] 20.9 µM [cytotoxic, partial curve] | Potency [3] 37.2 µM [cytotoxic, single point] | Potency [10] 20.9 µM [cytotoxic, partial curve]

O=C(NCC1CCCCN1)c1cc(OCC(F)(F)F)ccc1OCC(F)(F)F (configuration not stated)
inconclusive: Potency [1] 0.0526 µM [rising, full curve, poor fit] | Potency [2] 37.2 µM [cytotoxic, single point] | Potency [3] 0.001 µM | Potency [4] 33.2 µM [cytotoxic, single point] | Potency [8] 37.2 µM [cytotoxic, single point] | Potency [6] 18.7 µM [cytotoxic, partial curve, poor fit]

Additional structures

CNC(=O)c1ccc(C)c(-n2c(C)cc(OCc3ccc(F)cc3F)c(Br)c2=O)c1
inactive: Potency [7]
inconclusive: Potency [1] 20.9 µM [cytotoxic, partial curve, poor fit] | Potency [2] 26.4 µM [cytotoxic, single point] | Potency [3] 20.9 µM [cytotoxic, single point] | Potency [10] 18.7 µM [cytotoxic, partial curve, poor fit] | Potency [4] 0.0019 µM [cytotoxic, full curve] | Potency [8] 18.7 µM [cytotoxic, partial curve, poor fit]

CCCNS(=O)(=O)Nc1ncnc(OCCOc2ncc(Br)cn2)c1-c1ccc(Br)cc1
inactive: Potency [1] | Potency [2] | Potency [4]
inconclusive: Potency [10] 29.6 µM [rising, single point] | Potency [5] 3.72 µM [cytotoxic, full curve, poor fit] | Potency [8] 0.059 µM [rising, full curve, poor fit] | Potency [6] 0.0105 µM [rising, full curve, poor fit]

C[C@H](Cc1ccc(O)c(O)c1)[C@@H](C)Cc1ccc(O)c(O)c1
inactive: Potency [3]
inconclusive: Potency [5] 10.5 µM [cytotoxic, partial curve, poor fit]
active: Potency [1] 20.9 µM | Potency [2] 18.7 µM | Potency [4] 16.6 µM | Potency [7] 16.6 µM

Nc1ncnc2c1ncn2[C@@H]1O[C@@H](CO)[C@H](O)[C@H]1O
inconclusive: Potency [1] 0.0019 µM [rising, full curve, poor fit] | Potency [10] 0.0296 µM [rising, full curve] | Potency [4] 13.2 µM [cytotoxic, partial curve, poor fit] | Potency [5] 11.8 µM [cytotoxic, partial curve, poor fit] | Potency [8] 29.6 µM [cytotoxic, single point] | Potency [6] 26.4 µM [cytotoxic, single point] | Potency [7] 0.235 µM [rising, full curve]
inactive: Potency [2]
